## Percent effect of library compounds

Protein sequences, listed by entry. Tags and fused reporters are not part of them. Residues count along the entry.
UniProt Q4DA54, 1-478: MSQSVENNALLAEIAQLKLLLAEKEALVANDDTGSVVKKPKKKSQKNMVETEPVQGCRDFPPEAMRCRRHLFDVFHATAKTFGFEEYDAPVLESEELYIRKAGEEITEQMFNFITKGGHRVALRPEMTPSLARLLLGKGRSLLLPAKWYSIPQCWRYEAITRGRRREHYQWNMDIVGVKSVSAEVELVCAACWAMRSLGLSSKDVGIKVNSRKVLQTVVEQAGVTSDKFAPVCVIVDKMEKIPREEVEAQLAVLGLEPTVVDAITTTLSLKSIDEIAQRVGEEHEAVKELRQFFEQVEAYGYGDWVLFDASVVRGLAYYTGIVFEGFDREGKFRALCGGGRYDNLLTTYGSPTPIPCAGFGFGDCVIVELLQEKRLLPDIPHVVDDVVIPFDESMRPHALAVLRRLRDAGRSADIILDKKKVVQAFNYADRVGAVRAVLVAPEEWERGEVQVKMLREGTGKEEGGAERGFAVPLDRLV
UniProt A4I591, 1-473: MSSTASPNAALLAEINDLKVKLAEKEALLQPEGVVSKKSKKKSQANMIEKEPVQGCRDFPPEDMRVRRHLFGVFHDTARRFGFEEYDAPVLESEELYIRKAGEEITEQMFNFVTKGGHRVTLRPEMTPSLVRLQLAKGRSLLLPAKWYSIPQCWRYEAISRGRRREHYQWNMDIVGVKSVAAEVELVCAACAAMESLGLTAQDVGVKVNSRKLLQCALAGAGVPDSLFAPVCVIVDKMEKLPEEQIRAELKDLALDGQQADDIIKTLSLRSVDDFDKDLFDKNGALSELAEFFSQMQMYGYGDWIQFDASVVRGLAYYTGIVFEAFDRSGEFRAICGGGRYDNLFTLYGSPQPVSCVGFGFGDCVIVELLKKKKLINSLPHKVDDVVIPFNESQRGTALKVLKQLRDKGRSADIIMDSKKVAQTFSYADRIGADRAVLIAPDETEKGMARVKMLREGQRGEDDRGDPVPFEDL
UniProt Q8IDJ8, 1-583: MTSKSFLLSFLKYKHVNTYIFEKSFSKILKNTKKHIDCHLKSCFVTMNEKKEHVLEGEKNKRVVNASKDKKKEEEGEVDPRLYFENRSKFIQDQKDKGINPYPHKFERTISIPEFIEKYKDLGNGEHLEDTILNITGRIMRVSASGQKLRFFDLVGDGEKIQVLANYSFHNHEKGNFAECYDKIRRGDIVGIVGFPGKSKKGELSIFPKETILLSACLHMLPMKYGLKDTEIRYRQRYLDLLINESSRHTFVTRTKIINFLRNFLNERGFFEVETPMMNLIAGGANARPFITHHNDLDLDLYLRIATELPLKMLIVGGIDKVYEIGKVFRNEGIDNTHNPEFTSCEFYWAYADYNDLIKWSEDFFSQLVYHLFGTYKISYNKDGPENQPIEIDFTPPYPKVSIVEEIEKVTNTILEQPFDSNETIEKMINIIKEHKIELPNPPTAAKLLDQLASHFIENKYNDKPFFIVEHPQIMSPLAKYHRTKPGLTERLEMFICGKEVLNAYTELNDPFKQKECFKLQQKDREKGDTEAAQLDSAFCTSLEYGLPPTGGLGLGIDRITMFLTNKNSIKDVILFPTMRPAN
UniProt P9WNZ1, whole entry: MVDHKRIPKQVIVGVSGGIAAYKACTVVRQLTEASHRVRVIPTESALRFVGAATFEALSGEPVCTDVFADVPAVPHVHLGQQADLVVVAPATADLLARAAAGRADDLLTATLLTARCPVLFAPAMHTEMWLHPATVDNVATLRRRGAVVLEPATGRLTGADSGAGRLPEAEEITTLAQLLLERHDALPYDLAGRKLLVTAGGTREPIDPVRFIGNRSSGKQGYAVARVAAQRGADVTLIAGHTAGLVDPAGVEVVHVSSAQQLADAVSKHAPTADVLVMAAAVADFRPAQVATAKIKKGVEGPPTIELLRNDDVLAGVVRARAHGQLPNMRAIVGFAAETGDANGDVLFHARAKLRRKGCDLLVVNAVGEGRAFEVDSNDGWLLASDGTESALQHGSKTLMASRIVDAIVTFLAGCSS

A: 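Enzyme assay of histidyl-tRNA synthetase; the read-out is not stated. Target: Histidine-tRNA ligase, Trypanosoma cruzi CL Brener (UniProt Q4DA54). Tested at 30 µM. The record gives no direction; compounds that gave an IC50 in retests scored well above the rest, so higher reads as stronger inhibition. Of about 69,000 compounds tested this way, about 31 (0.045%) reached 50% or more in at least one test.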
B: 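Enzyme assay of histidyl-tRNA synthetase; the read-out is not stated. Target: Histidine-tRNA ligase, Leishmania infantum (UniProt A4I591). Concentration: 30 µM. Higher reads as stronger inhibition (inferred: compounds with an IC50 in retests scored well above the rest). The assay is labelled LdHisRS but filed under L. infantum. Size under these conditions: about 69,000 compounds, about 410 of them at 50% or above in at least one test.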
C: 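Assay of Toxoplasma gondii numbers, read through their beta-galactosidase reporter with a colour substrate. Compounds at 10 µM. The record gives no direction; the compounds picked for IC50 retests had high values, so higher reads as fewer parasites. Size under these conditions: about 67,000 compounds, about 260 of them at 50% or above in at least one test.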
D: 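Lysine-tRNA ligase, Plasmodium falciparum 3D7 (UniProt Q8IDJ8). Enzyme assay of the cytosolic lysyl-tRNA synthetase in 384-well plates, read by luminescence. Compounds at 30 µM. Direction is inferred from only a few compounds that gave an IC50; most scored high, so higher reads as stronger inhibition. Of about 69,000 compounds tested this way, about 49 (0.071%) reached 50% or more in at least one test.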
E: 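Enzyme assay of CoaBC with a phosphate dye (Biomol Green) read at 650 nm. Target: Coenzyme A biosynthesis protein CoaBC, Mycobacterium tuberculosis (UniProt P9WNZ1). Concentration: 30 µM. Higher reads as stronger inhibition, judged from the few compounds that gave an IC50. Most strong results did not repeat in a second test. Size under these conditions: about 67,000 compounds, about 40 of them at 50% or above in at least one test.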

The filed quantity is “Percent Effect” (%).
The record does not define 0% and 100%; most values in the screen are far below 50% and negative numbers occur (in some assays of this library far below -100).
Compounds were drawn at random from those tested, without regard to their results.

* CC(C)(CO)Nc1cc(-c2ccccc2)ncn1 : A: 6.78%; B: 14.29%; C: -8.951%; D: 3.429%; E: -2.048%
* Cc1cnn(CC2CCCCN2C(=O)CC(F)(F)F)c1 (stereo not drawn) : A: 3.944%; B: 6.087%; C: 0.2259%; D: -0.6391%; E: -1.654%
* O=C(NCc1ccccn1)N1CC=C(c2ccccc2)CC1 : A: 4.082%; B: 25%; C: -9.97%; D: 4.513%; E: 12.3%
* COCCNC(=O)c1ccc2c(=O)n3c(nc2c1)CCCC3 : A: 4.878%; B: 23.68%; C: -3.108%; D: 5.243%; E: -0.5063%
* CCN1CCc2cc(-c3cncn3CC(=O)NC(C)(C)C)ccc21.Cl : C: 0.7731%
* CC1(C)CC(N(Cc2cccnc2)Cc2cccnc2)CC(C)(C)N1 : A: 12.09%; B: -10.14%; D: 3.333%; E: 2.913%
* COc1ccc(CN2C[C@@H](N(C)Cc3ccco3)[C@H]3OCCC[C@H]32)cc1 : A: 9.29%; B: 13.87%; D: 4.373%; E: 11.66%
* OC[C@@H]1CCCN1c1ccc(-c2nc(COc3ccccc3)no2)cn1 : A: 4.082%; B: 8.333%; C: 4.423%; D: 5.049%; E: 3.968%
* [H][C@@]12CS(=O)(=O)C[C@]1([H])N(Cc1cccnc1)CCN2CCOC : C: -7.271%
* OCc1cc(C2CCCN2c2ncccn2)n[nH]1 (stereo not drawn) : A: 1.515%; B: 8.451%; C: 30.52%; D: -0.2972%; E: -5.425%
* Cc1cccc(C)c1OCCNC(=O)CN1CCN(C)CC1C (stereo not drawn) : A: 0.8746%; B: 11.01%; C: 36.41%; D: -1.733%; E: 5.106%
* Cc1nc(C)n(CC2CCCCN2Cc2ncc(C(C)(C)C)o2)n1 (stereo not drawn) : A: 2.29%; B: 19.18%; C: 2.541%; D: 4.973%; E: 0.241%
* O=C(O)C(F)(F)F.[H][C@@]12C[C@H](C(=O)NCCN(C)C)[C@@]([H])(CN(C(=O)NCc3ccccc3)C1)O2 : C: 3.864%
* Cc1ccc(C)c(S(=O)(=O)CCN2CCc3c(ncn3C)C2)c1 : A: 7.345%; B: 13.79%; C: -4.134%; D: -0.2884%; E: 4.961%
* COc1ccc(OCCCN2CCOC(Cn3cccn3)C2)cc1 (stereo not drawn) : A: 5.639%; B: 5.405%; C: -0.6187%; D: -4.016%; E: 3.133%
* CN(C)CCN1CC[C@@H]2[C@@H]1CCN2C(=O)c1cccc(Cl)c1 : A: 10.2%; B: 17%; D: 0.8226%; E: 2.349%
* COC(=O)N1CCN2C[C@H](CO)[C@@H](c3ccccc3)[C@H]2C1 : A: 1.124%; B: 4.082%; D: 3.499%; E: -1.695%
* O=C(O)C(F)(F)F.[H][C@]12C[C@H](C(=O)NC)N(C)[C@@]1([H])CN(S(=O)(=O)c1ccc(OC)cc1)C2 : C: -2.028%
* CCC(CO)NCc1ccc(-c2ccc(F)c(Cl)c2)o1.Cl (stereo not drawn) : C: 7.98%
* CCN1CCN(C(=O)c2csnn2)c2ccccc21 : A: 6.024%; B: 14%; C: -8.166%; D: 3.054%; E: 0.2475%
* CCc1ncc(CN(C)C2CCN(c3sccc3C#N)C2=O)s1 (stereo not drawn) : A: 6.952%; B: 4.712%; C: 2.31%; D: 3.697%; E: 10%
* O=C(NCc1csc(Br)c1)Nc1cn[nH]c1 : A: 7.463%; B: 20.48%; C: -10.97%; D: 13.19%; E: 9.41%
* O=c1cc(N2CCCC2)cnn1CC(F)F : A: 3.03%; B: 5.319%; C: -10.34%; D: -1.971%; E: -0.3367%

Some entries from above, unchanged:

* Cc1cnn(CC2CCCCN2C(=O)CC(F)(F)F)c1 (stereo not drawn) | A: 3.944%; B: 6.087%; C: 0.2259%; D: -0.6391%; E: -1.654%
* CN(C)CCN1CC[C@@H]2[C@@H]1CCN2C(=O)c1cccc(Cl)c1 | A: 10.2%; B: 17%; D: 0.8226%; E: 2.349%
* [H][C@@]12CS(=O)(=O)C[C@]1([H])N(Cc1cccnc1)CCN2CCOC | C: -7.271%

Measurements from “University of Dundee, Small-Polar-MMV Screening Library” (2021), ChEMBL document CHEMBL3988442.